Article PMC10996989
Results are given in words; binding and its absence hold for the method and conditions named. Binding seen in cells or lysates may run through a third protein. Some entries that bind do so weakly or less than the wild type.

By UniProt entry, the sequences of proteins in these tests, tags left out. Residues count along the entry.
UniProt Q8R4B8: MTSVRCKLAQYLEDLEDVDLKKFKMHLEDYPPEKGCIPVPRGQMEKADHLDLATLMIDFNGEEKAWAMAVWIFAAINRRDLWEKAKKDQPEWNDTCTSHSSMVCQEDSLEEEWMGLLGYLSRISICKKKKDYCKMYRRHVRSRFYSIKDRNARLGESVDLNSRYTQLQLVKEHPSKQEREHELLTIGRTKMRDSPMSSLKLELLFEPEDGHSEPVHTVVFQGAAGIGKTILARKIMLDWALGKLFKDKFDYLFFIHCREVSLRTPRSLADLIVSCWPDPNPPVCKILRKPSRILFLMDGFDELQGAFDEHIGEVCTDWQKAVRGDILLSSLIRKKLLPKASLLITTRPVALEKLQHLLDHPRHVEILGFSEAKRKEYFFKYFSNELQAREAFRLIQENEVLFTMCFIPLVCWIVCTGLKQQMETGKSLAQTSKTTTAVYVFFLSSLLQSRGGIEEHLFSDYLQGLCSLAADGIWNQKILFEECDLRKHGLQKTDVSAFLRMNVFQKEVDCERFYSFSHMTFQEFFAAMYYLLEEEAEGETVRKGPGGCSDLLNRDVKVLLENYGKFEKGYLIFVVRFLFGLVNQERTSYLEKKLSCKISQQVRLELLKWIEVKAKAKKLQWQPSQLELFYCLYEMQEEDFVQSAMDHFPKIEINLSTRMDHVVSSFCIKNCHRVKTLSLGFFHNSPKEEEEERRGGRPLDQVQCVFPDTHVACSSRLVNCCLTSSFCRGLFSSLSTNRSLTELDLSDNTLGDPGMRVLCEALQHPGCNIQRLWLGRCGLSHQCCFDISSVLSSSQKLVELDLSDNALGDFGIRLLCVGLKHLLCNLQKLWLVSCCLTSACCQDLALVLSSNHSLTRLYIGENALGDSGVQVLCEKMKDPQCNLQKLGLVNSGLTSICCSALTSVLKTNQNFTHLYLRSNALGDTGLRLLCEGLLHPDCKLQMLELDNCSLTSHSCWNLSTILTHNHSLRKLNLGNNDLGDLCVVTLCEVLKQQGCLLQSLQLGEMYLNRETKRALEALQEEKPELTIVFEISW
UniProt P55065, residues 18-493: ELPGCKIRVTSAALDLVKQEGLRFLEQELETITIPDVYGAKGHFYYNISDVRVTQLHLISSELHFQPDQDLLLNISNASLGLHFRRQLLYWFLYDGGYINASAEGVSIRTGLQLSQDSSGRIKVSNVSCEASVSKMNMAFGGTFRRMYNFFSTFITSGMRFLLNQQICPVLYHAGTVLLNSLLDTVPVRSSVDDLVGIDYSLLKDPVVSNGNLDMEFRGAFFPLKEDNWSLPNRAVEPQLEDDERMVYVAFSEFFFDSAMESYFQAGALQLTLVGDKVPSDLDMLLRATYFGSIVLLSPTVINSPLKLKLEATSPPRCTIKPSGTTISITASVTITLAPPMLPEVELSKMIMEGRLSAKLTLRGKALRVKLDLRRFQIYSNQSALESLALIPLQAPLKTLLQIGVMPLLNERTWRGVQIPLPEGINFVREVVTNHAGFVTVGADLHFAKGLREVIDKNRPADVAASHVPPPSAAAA

Target: NOD-like receptor thermal protein domain associated protein 3 (mouse (endogenous in M6200)) (UniProt Q8R4B8)
Assay: co-IP; primary antibody (anti-PLTP, anti-NLRP3 or IgG) on protein A + G agarose, incubated with cellular protein overnight at 4°C, washed with PBS, then western blot; n = 3

Substance: Phospholipid transfer protein (from UniProt P55065 18-493)
- binding: binds
